Results as given in PMC9059368.
These are yes or no findings as the source states them, for the method shown. In cells and extracts the contact can be indirect. Some entries that bind do so weakly or less than the wild type.

Amino acid sequences for entries named in this document (tags omitted).
UniProt Q92731: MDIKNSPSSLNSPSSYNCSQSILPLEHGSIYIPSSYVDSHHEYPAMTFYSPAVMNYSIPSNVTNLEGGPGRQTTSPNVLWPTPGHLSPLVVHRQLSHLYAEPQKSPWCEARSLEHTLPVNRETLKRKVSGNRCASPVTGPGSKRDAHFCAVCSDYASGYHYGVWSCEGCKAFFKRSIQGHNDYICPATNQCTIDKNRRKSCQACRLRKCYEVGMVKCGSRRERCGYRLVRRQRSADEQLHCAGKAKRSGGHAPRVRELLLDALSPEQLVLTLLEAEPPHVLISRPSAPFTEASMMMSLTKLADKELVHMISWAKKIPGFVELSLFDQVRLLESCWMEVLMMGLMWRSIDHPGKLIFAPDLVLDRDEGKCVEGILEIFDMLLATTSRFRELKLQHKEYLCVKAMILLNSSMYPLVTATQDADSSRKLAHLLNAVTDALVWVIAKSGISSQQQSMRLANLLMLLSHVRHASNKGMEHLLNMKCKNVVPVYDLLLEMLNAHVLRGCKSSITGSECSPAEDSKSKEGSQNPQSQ
UniProt P03372: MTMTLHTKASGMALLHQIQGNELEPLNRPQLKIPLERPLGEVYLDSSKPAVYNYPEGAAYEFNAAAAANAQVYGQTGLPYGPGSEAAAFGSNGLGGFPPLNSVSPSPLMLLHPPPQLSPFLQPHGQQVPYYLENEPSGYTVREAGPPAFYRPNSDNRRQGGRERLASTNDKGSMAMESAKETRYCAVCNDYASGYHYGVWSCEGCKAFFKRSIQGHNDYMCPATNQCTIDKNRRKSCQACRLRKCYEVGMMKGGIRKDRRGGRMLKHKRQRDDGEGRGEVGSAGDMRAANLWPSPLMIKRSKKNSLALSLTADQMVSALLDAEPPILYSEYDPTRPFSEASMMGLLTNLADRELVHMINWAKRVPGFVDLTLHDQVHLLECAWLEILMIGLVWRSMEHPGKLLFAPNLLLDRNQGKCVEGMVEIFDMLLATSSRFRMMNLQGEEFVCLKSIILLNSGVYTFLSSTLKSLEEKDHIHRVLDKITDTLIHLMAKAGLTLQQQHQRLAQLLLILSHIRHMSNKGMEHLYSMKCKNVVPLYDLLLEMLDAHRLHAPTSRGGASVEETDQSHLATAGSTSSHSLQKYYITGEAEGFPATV
UniProt Q13547: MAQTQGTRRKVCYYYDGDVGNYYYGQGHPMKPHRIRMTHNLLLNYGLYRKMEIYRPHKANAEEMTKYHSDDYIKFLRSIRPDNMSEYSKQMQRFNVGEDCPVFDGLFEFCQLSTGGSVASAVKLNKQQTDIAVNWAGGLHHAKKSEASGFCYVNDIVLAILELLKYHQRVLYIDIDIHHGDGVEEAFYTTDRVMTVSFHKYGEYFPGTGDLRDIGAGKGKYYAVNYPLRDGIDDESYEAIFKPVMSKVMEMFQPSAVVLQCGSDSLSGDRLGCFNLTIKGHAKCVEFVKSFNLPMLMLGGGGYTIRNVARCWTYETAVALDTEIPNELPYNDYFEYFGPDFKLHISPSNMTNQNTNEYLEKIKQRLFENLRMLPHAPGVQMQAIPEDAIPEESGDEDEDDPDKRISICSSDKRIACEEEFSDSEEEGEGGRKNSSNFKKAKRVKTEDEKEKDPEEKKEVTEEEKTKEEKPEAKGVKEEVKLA
UniProt Q15022: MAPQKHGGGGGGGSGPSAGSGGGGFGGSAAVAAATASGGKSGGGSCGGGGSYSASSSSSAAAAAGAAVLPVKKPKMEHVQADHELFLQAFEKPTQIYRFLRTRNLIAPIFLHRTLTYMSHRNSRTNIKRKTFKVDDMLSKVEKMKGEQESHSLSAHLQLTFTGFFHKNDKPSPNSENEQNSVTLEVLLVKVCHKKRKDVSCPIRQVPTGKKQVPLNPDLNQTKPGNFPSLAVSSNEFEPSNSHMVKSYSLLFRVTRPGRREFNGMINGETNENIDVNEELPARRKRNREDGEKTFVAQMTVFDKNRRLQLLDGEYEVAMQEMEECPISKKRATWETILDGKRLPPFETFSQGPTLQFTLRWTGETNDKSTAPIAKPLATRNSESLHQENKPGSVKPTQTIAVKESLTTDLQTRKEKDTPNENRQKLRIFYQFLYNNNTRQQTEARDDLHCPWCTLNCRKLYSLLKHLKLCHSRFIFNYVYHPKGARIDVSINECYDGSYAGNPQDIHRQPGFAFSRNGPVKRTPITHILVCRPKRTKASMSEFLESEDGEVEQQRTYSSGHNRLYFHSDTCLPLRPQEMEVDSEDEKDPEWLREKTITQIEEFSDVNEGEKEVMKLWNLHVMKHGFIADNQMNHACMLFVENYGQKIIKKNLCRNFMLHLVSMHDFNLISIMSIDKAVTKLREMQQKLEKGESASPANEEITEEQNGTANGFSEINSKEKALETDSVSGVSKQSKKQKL

Experiments:
[1] = biological target: Flag-tagged estrogen receptor beta (Flag-ERβ) (UniProt Q92731); experiment: co-IP; anti-Flag agarose IP from lysates of Ishikawa cells expressing Flag (Vec), Flag-ERα or Flag-ERβ, elution with 3xFlag peptide, immunoblot; Flag-ERα cells also pretreated with DMSO, E2, E3, BPA or DES (1 x 10^-6 M)
[2] = biological target: Flag-tagged estrogen receptor beta (Flag-ERβ) (UniProt Q92731); experiment: co-IP; anti-Flag IP from lysates of SH-SY5Y neuroblastoma cells transfected with Flag (Vec), Flag-ERα or Flag-ERβ, treated with or without E3, immunoblot
[3] = biological target: Flag-tagged estrogen receptor alpha (Flag-ERα) (human) (UniProt P03372); experiment: co-IP; anti-Flag agarose IP from lysates of Ishikawa cells expressing Flag (Vec), Flag-ERα or Flag-ERβ, elution with 3xFlag peptide, immunoblot; Flag-ERα cells also pretreated with DMSO, E2, E3, BPA or DES (1 x 10^-6 M)
[4] = biological target: Flag-tagged estrogen receptor alpha (Flag-ERα) (human) (UniProt P03372); experiment: co-IP; anti-Flag IP from lysates of SH-SY5Y neuroblastoma cells transfected with Flag (Vec), Flag-ERα or Flag-ERβ, treated with or without E3, immunoblot

Measured: binding

histone deacetylase 1 (HDAC1) (from UniProt Q13547 1-482) (enzyme)
binds: [1] | [2]

suppressor of Zeste 12 Protein (SUZ12) (from UniProt Q15022 1-739)
binds: all assays above
